Measurements reported in PubChem BioAssay AID1671195 (Yale University, 2021)

Screen: 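Genes whose knockdown alters LDL uptake in liver cancer cells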 (primary screen)
System: human Huh7 hepatoma cells
Reagent: siRNA pool against human genes, 18 nM
Time to read-out: about 2 to 2.5 days of knockdown, then 8 h LDL uptake
Challenge: DiI-labelled LDL at 30 µg/ml for 8 h, in lipoprotein-deficient serum medium
Measured: 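Per-cell DiI-LDL intensity by automated imaging; well means scaled to the plate median and given as a robust z-score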
Reading the numbers: robust z-score: higher = more LDL uptake after knockdown
Call rule: 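a gene counts as active if at least two replicate z-scores exceed ±2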
The whole screen tested about 22,000 reagents; this is an unselected part. In the full data, about 1,510 (6.9%) got an active call. 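Active includes knockdowns raising or lowering LDL uptake; positive z-scores mean more uptake, negative mean less.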

target | PubChem SID | robust z-score, replicate 1 | robust z-score, replicate 2 | robust z-score, replicate 3 | activity call
SFT2D3 (SFT2 domain containing 3) | SID442900704 | -0.858 | -1.2 | -0.322 | inactive
LCE2A (late cornified envelope 2A) | SID442888268 | 0.654 | 0.924 | 0.68 | inactive
FKBP6 (FKBP prolyl isomerase family member 6 (inactive)) | SID442896796 | -0.23 | -0.467 | -0.244 | inactive
LOC340913 (retired record) | SID442888406 | 1.32 | 0.497 | 0.363 | inactive
EAF1 (ELL associated factor 1) | SID442900544 | -0.78 | -0.639 | -0.901 | inactive
AP1G2 (adaptor related protein complex 1 subunit gamma 2) | SID442899669 | -0.629 | -0.89 | -0.438 | inactive
BRPF1 (bromodomain and PHD finger containing 1) | SID442902378 | -1.01 | -1.03 | -1.15 | inactive
JUN (Jun proto-oncogene, AP-1 transcription factor subunit) | SID442893001 | -0.277 | 0.929 | -0.357 | inactive
NDUFS4 (NADH:ubiquinone oxidoreductase subunit S4) | SID442899798 | -0.518 | -0.785 | -0.71 | inactive
USP19 (ubiquitin specific peptidase 19) | SID442890879 | 0.192 | 0.612 | 0.274 | inactive
SPATA31D3 (SPATA31 subfamily D member 3) | SID442887170 | 0.87 | 1.18 | 0.862 | inactive
PRKAR2A | SID442903454 | -1.22 | -1.16 | -1.53 | inactive
RRP7A (ribosomal RNA processing 7 homolog A) | SID442884226 | 2.23 | 0.356 | 2.11 | active
TLX2 (T cell leukemia homeobox 2) | SID442902056 | -1.5 | -0.55 | -0.965 | inactive
FN3K (fructosamine 3 kinase) | SID442895897 | -0.452 | -0.145 | -0.0559 | inactive
LRRC74BNL (LRRC74B N-terminal like) | SID442897474 | -0.0646 | -0.773 | -0.331 | inactive
LOC388383 (retired record) | SID442899527 | -0.302 | -1.28 | -0.307 | inactive
ANKRD35 (ankyrin repeat domain 35) | SID442902713 | -1.42 | -0.549 | -1.43 | inactive
USP15 (ubiquitin specific peptidase 15) | SID442902840 | -1.11 | -1.21 | -1.17 | inactive
OSBPL7 (oxysterol binding protein like 7) | SID442889586 | 0.207 | 1.21 | 0.189 | inactive
SOS1 (SOS Ras/Rac guanine nucleotide exchange factor 1) | SID442902694 | -0.856 | -1.63 | -0.904 | inactive
LOC387901 (retired record) | SID442900969 | -0.729 | -0.848 | -0.922 | inactive
YTHDC2 (YTH N6-methyladenosine RNA binding protein C2) | SID442896099 | -0.104 | -0.292 | -0.319 | inactive
DEFB135 (defensin beta 135) | SID442899515 | -0.201 | -0.937 | -0.754 | inactive
PAGE3 (PAGE family member 3) | SID442894749 | 0.124 | -0.212 | -0.204 | inactive
KRTAP9-2 (keratin associated protein 9-2) | SID442889198 | 0.125 | 0.917 | 0.748 | inactive
DCAF15 (DDB1 and CUL4 associated factor 15) | SID442891344 | -0.041 | 0.62 | 0.315 | inactive
FOXE1 (forkhead box E1) | SID442883392 | 3.35 | 2.52 | 3.24 | active
ODF4 (outer dense fiber of sperm tails 4) | SID442895111 | -0.154 | 0.254 | -0.503 | inactive
TRIT1 (tRNA isopentenyltransferase 1) | SID442896736 | -0.381 | -0.0955 | -0.444 | inactive
AVPR2 (arginine vasopressin receptor 2) | SID442897776 | 0.126 | -0.884 | -0.513 | inactive
MDGA1 (MAM domain containing glycosylphosphatidylinositol anchor 1) | SID442901628 | -0.982 | -0.887 | -0.923 | inactive
ELMO2 (engulfment and cell motility 2) | SID442883099 | 7.54 | 5.72 | 7.68 | active
ZNF134 (zinc finger protein 134) | SID442888856 | 0.324 | 0.76 | 0.865 | inactive
SNX29P2 (sorting nexin 29 pseudogene 2) | SID442889669 | 0.618 | -0.0288 | 0.988 | inactive
WDR64 (WD repeat domain 64) | SID442887657 | 1.34 | 0.0713 | 1.19 | inactive
VPS26B (VPS26 retromer complex component B) | SID442889124 | 0.0934 | 1.01 | 0.727 | inactive
SLC22A6 | SID442903638 | -1.28 | -1.36 | -1.39 | inactive
OR5K4 (olfactory receptor family 5 subfamily K member 4) | SID442893222 | 0.122 | 0.209 | -0.105 | inactive
PTGES2 (prostaglandin E synthase 2) | SID442894296 | -0.124 | 0.678 | -0.698 | inactive
TIMM23B (translocase of inner mitochondrial membrane 23 homolog B) | SID442904682 | -1.89 | -1.31 | -2.22 | inactive
LOC387888 (retired record) | SID442895234 | -0.512 | 0.216 | -0.148 | inactive
RALGAPA1 (Ral GTPase activating protein catalytic subunit alpha 1) | SID442885988 | 1.12 | 1.3 | 1.48 | inactive
F10 (coagulation factor X) | SID442896221 | -0.179 | -0.3 | -0.273 | inactive
LOC442480 (retired record) | SID442894971 | -0.236 | 0.0854 | -0.206 | inactive
ARHGAP5 (Rho GTPase activating protein 5) | SID442890856 | 0.0615 | 0.815 | 0.209 | inactive
KIAA1217 | SID442893294 | 0.701 | -0.53 | 0.027 | inactive
EDDM3B (epididymal protein 3B) | SID442888153 | 0.442 | -0.211 | 2.09 | inactive
CCNA2 (cyclin A2) | SID442895351 | -0.478 | 0.668 | -0.674 | inactive
HMSD (histocompatibility minor serpin domain containing) | SID442887829 | 0.886 | 0.469 | 1.15 | inactive
NDUFV1-DT (NDUFV1 divergent transcript) | SID442900167 | -0.97 | -0.653 | -0.545 | inactive
ARPC5 (actin related protein 2/3 complex subunit 5) | SID442896407 | -0.0179 | 0.0748 | -0.865 | inactive
LOC387756 (retired record) | SID442898086 | -0.334 | -0.525 | -0.521 | inactive
KRT12 (keratin 12) | SID442891162 | 0.0564 | -0.134 | 1.04 | inactive
WFDC5 (WAP four-disulfide core domain 5) | SID442903710 | -0.873 | -1.71 | -1.52 | inactive
OR5L2 (olfactory receptor family 5 subfamily L member 2) | SID442887251 | 0.905 | 0.92 | 1.04 | inactive
LOC442497 | SID442903030 | -0.726 | -1.45 | -1.42 | inactive
F8A1 (coagulation factor VIII associated 1) | SID442885886 | 1.09 | 1.26 | 1.65 | inactive
ADORA2A (adenosine A2a receptor) | SID442889449 | 0.911 | 0.499 | 0.262 | inactive
LINC00944 (long independently transcribed non-coding RNA 944) | SID442899558 | -0.85 | -0.699 | -0.359 | inactive
MAPRE3 (microtubule associated protein RP/EB family member 3) | SID442900555 | -1.2 | -0.614 | -0.51 | inactive
SCRG1 (stimulator of chondrogenesis 1) | SID442893739 | 0.625 | -0.775 | 0.197 | inactive
ZNF302 (zinc finger protein 302) | SID442895391 | -0.174 | -0.264 | -0.0555 | inactive
NUP35 (nucleoporin 35) | SID442894306 | 0.427 | -0.393 | -0.18 | inactive
PRTN3 (proteinase 3) | SID442903029 | -1.2 | -1.48 | -0.918 | inactive
OR6N2 (olfactory receptor family 6 subfamily N member 2) | SID442904602 | -1.88 | -1.72 | -1.63 | inactive
ATPAF1 (ATP synthase mitochondrial F1 complex assembly factor 1) | SID442903193 | -1.22 | -1.16 | -1.34 | inactive
LOC390734 (retired record) | SID442898315 | -0.313 | -0.691 | -0.452 | inactive
CYTH1 (cytohesin 1) | SID442886852 | 1.09 | 1.39 | 0.658 | inactive
EFCAB12 (EF-hand calcium binding domain 12) | SID442894595 | -0.448 | 0.0598 | 0.149 | inactive
LOC399867 (retired record) | SID442901851 | -0.47 | -1.22 | -1.23 | inactive
LOC440058 (retired record) | SID442896134 | -0.228 | 0.131 | -0.627 | inactive
UTP20 (UTP20 small subunit processome component) | SID442892426 | 0.34 | -0.511 | 0.678 | inactive
ZW10 (zw10 kinetochore protein) | SID442892654 | 0.282 | -0.00743 | 0.146 | inactive
DHX30 (DExH-box helicase 30) | SID442888168 | 1.28 | 0.661 | 0.383 | inactive
LOC442466 (retired record) | SID442887148 | 1.5 | 1.47 | -0.0455 | inactive
ADM2 (adrenomedullin 2) | SID442902526 | -1.15 | -0.809 | -1.33 | inactive
CAPS2 (calcyphosine 2) | SID442902657 | -1.06 | -1.5 | -0.795 | inactive
SPATA19 (spermatogenesis associated 19) | SID442895804 | -0.0693 | -0.539 | -0.015 | inactive
PTPN9 (protein tyrosine phosphatase non-receptor type 9) | SID442899801 | -0.73 | -0.645 | -0.638 | inactive
STK4 (serine/threonine kinase 4) | SID442894349 | -0.324 | -0.163 | 0.325 | inactive
DYNLT2 (dynein light chain Tctex-type 2) | SID442892944 | 0.329 | 0.074 | -0.0848 | inactive
PIBF1 (progesterone immunomodulatory binding factor 1) | SID442893638 | -0.308 | 1.17 | -0.776 | inactive
HACL2 (2-hydroxyacyl-CoA lyase 2) | SID442895987 | -0.734 | 0.69 | -0.635 | inactive
LOC389204 (retired record) | SID442891703 | 0.385 | 0.365 | 0.00887 | inactive
SMIM17 (small integral membrane protein 17) | SID442886668 | 1.63 | 0.78 | 0.869 | inactive
TRPV3 | SID442903879 | -1.26 | -1.48 | -1.52 | inactive

A run of entries taken from the entries so far:
target | PubChem SID | robust z-score, replicate 1 | robust z-score, replicate 2 | robust z-score, replicate 3 | activity call
SOS1 (SOS Ras/Rac guanine nucleotide exchange factor 1) | SID442902694 | -0.856 | -1.63 | -0.904 | inactive
LOC387901 (retired record) | SID442900969 | -0.729 | -0.848 | -0.922 | inactive
YTHDC2 (YTH N6-methyladenosine RNA binding protein C2) | SID442896099 | -0.104 | -0.292 | -0.319 | inactive
DEFB135 (defensin beta 135) | SID442899515 | -0.201 | -0.937 | -0.754 | inactive
PAGE3 (PAGE family member 3) | SID442894749 | 0.124 | -0.212 | -0.204 | inactive
